From PubChem BioAssay AID493014 (National Center for Advancing Translational Sciences (NCATS), 2011)
In all, about 340,000 compounds went through this assay and about 170 (0.05%) were called active. Inconclusive means that the source gave no clear call. Such entries were picked first, then a sample of the others. Calls come from the whole dose curve; as a rule, active = well fitted inhibition curve with a large enough effect in the signal ratio, with a control signal flat (not every such curve was filed as active); inconclusive = small, poorly fitted or top-dose-only effect, or effect the other way, or a change in a side signal; inactive = flat fitted curve, though single readings scatter; the % refers to the signal ratio. Potencies beside an inconclusive call are fits to weak or partial responses and may not hold up.
Potency is the fitted concentration of half-maximal effect.

Test: qHTS Assay to Find Inhibitors of Chronic Active B-Cell Receptor Signaling;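 for activity change, negative = inhibition: plate controls were basal doxycycline-induced cells for no effect and cells given 10 µM MG132 for full effect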
Conditions: ABC-DLBCL IkBa-CBG/CBR reporter, luminescence ratio (green luciferase fused to IkBa over red control in TMD8 lymphoma cells), 4 h; activity change, negative = inhibition: at 46.1 µM (top of the series) unless noted
How it was run: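 TMD8 ABC-DLBCL cells carrying doxycycline-inducible green luciferase fused to IkappaBalpha plus unfused red luciferase were exposed to compounds (up to 46 uM) for 4 hrs at 37C. Activity came from the overlap-corrected green/red luminescence ratio.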
With `CC(C)CCNC(=O)C(c1ccncc1)N(Cc1cccs1)C(=O)Cn1nnc(-c2ccc(F)cc2)n1` (stereo not given) the Potency was inconclusive: 13 µM [rising, partial curve, poor fit]. For `Cc1cc(OC(F)F)ccc1NC(=S)NC1CCCC1`, the activity change, negative = inhibition was inconclusive: -9.58%. In the case of `O=C(N/N=C\c1ccc(-c2ccc([N+](=O)[O-])cc2)o1)c1ccc2c(c1)OCO2`, the Potency is reported as inconclusive: 4.61 µM [falling, partial curve]. In the case of `COc1ccccc1N1CCN(C(=O)CSc2nc(C)c(C)c(=O)[nH]2)CC1`, the activity change, negative = inhibition is reported as inconclusive: -6.41%. With `COc1ccc(OC)c(CN(CCN2CCOCC2)C(=O)Nc2ccccc2)c1` the activity change, negative = inhibition was inconclusive: -7.52%. For `Clc1ccc(-n2nnnc2-c2cnc3ccccc3c2-c2ccccc2)cc1`, the activity change, negative = inhibition was inconclusive: -17.1%. For `COc1cccc(/C=C/c2ccncc2)c1OC`, the activity change, negative = inhibition was “inactive”. In the case of `CCOc1cc(/C=N/Nc2nc(N3CCCCC3)nc(N3CCCCC3)n2)ccc1OC(=O)c1ccco1`, the activity change, negative = inhibition is reported as “inactive”. With `Cc1oc(-c2ccccc2Cl)nc1CS(=O)CC(=O)N1CCN(c2cccc(C(F)(F)F)c2)CC1` (stereo not given) the activity change, negative = inhibition was “inactive”. In the case of `CCN(CC)S(=O)(=O)c1ccc(O)c(C(=O)OCC(=O)Nc2ccc(OC(F)(F)F)cc2)c1`, the activity change, negative = inhibition is reported as inconclusive: 2.39%. With `CC1(C)CC(C)(c2ccc(O)cc2O)N(c2ccc3ccccc3c2)C(=S)N1` (stereo not given) the activity change, negative = inhibition was inconclusive: 4.64%. With `O=C(O)c1ccc(COc2ccc3c4c(c(=O)oc3c2)CCC4)o1` the Potency was inconclusive: 3.16 µM [falling, full curve, poor fit]. In the case of `Nc1ncnc2nc(SCCOc3ccc(Cl)cc3)[nH]c12`, the activity change, negative = inhibition is reported as inconclusive: -6.51%. With `Oc1ccc(C[C@@H]2CNCCN2CCC23CC4CC(CC(C4)C2)C3)cc1` the Potency was inconclusive: 23.1 µM [falling, single point]. For `O=c1cc(-c2ccccc2)nc2nc(CCc3ccccc3)[nH]n12`, the Potency was inconclusive: 8.2 µM [falling, partial curve]. In the case of `C=CCC[C@@H](Cc1ccc(F)cc1)C(=O)OC[C@@H](Cc1c[nH]c2ccccc12)NC(=O)[C@H](CC=C)CC(=O)N(CCO)Cc1ccccc1`, the activity change, negative = inhibition is reported as inconclusive: -1.51%. For `CCCNC(=O)C/C(C)=N/NC(=O)C(=O)Nc1ccccn1`, the Potency was inconclusive: 2.51 µM [falling, partial curve, poor fit]. With `CN(C)S(=O)(=O)c1ccc(C(=O)NCC2CC2(Cl)Cl)cc1` (stereo not given) the activity change, negative = inhibition was inconclusive: -18%. For `COc1ccc(S(=O)(=O)N2CCCCC2)cc1NC(=O)c1[nH]c(C)c(C(C)=O)c1C`, the activity change, negative = inhibition was inconclusive: -9.6%. In the case of `O=c1c2ccccc2sn1-c1cc(S(=O)(=O)N2CCOCC2)ccc1N1CCCC1`, the activity change, negative = inhibition is reported as inconclusive: -9.6%. With `CC(C)Cn1c(N)c(C(=O)NCC2CCCO2)c2nc3ccccc3nc21` (stereo not given) the activity change, negative = inhibition was inconclusive: -8.23%. In the case of `Cc1cc(-c2[nH]nc3c2C(c2cccc(O)c2)C(C#N)=C(N)O3)c(C)s1` (stereo not given), the activity change, negative = inhibition is reported as inconclusive: -3.45%. For `COc1ccccc1N1CCN(S(=O)(=O)c2ccccc2F)CC1`, the activity change, negative = inhibition was “inactive”. With `COc1ccccc1OCCNC(=O)C(=O)c1c[nH]c2ccccc12` the Potency was inconclusive: 6.31 µM [falling, single point]. For `O=C(NCc1ccccn1)C(=O)N/N=C/c1ccc2c(c1)OCO2`, the activity change, negative = inhibition was “inactive”. In the case of `O=C(NCC1CCCO1)c1cc2c([nH]c3ccccc32)c(-c2cccc(Br)c2)n1` (stereo not given), the Potency is reported as inconclusive: 7.08 µM [rising, partial curve]. For `Cc1ccc(-c2ccnc3cc(C)nn23)cc1`, the activity change, negative = inhibition was “inactive”. For `Cn1c(CN2CCC(C(N)=O)CC2)c(C#N)c2ccccc21`, the activity change, negative = inhibition was inconclusive: -12.9%. With `CC(C)NC1=C(Cl)C(=O)c2ccccc2C1=O` the Potency was inconclusive: 4.11 µM [rising, full curve, poor fit]. For `O=C(CN1CCN(C(=O)CNC(=O)c2ccc3c(c2)OCO3)CC1)Nc1ccccc1Cl`, the Potency was inconclusive: 23.1 µM [falling, partial curve, poor fit]. For `CCN(C(=O)COC(=O)c1ccc(C)c(S(=O)(=O)N2CCCCC2)c1)C1CCS(=O)(=O)C1` (stereo not given), the Potency was inconclusive: 16.4 µM [falling, partial curve]. With `O=C(Nc1ccc([N+](=O)[O-])cc1Br)c1cc2ccccc2nc1Cl` the activity change, negative = inhibition was inconclusive: 14.2%. In the case of `O=C1C=C(c2ccccc2)C[C@@H](c2ccc(Cl)cc2)C1`, the activity change, negative = inhibition is reported as inconclusive: 7.18%. In the case of `O=C(CCl)Nc1ccc(-c2ccccc2)cc1`, the Potency is reported as inconclusive: 10 µM [rising, partial curve, poor fit]. With `COc1ccc(N(C(=O)Cc2cccs2)C(C(=O)NC2CCCC2)c2ccncc2)cc1` (stereo not given) the activity change, negative = inhibition was “inactive”. In the case of `CC1(O)CC(c2ccc(Cl)cc2)=NN1C(=O)c1ccc(Cl)cc1` (stereo not given), the activity change, negative = inhibition is reported as inconclusive: -8.37%. With `CCOC(=O)N1CCC(N2CCN(S(=O)(=O)c3ccc(C)cc3)CC2)CC1` the activity change, negative = inhibition was “inactive”. In the case of `Cc1ccc(CNC(=O)COC(=O)[C@@H]2CC(O)CN2S(=O)(=O)c2ccc3c(c2)OCCO3)cc1` (stereo not given in full), the activity change, negative = inhibition is reported as inconclusive: -0.766%. With `O=c1[nH]cccc1-c1nc2ccccc2n1Cc1cccc(Cl)c1` the activity change, negative = inhibition was inconclusive: 0%. For `O=C(Nc1ccc(F)cc1)C(Cc1ccccc1)n1cccc1` (stereo not given), the activity change, negative = inhibition was inconclusive: 9.77%. For `Cc1cccc(NC(=O)c2cnn3ccccc23)c1C`, the activity change, negative = inhibition was “inactive”. In the case of `COc1cccc(C(=O)O/N=C(\N)c2ccc([N+](=O)[O-])cc2)c1OC`, the activity change, negative = inhibition is reported as inconclusive: -4.19%. In the case of `O=C(Nc1ccccn1)c1ccc2ccccc2n1`, the Potency is reported as inconclusive: 31.6 µM [falling, partial curve]. In the case of `COC(=O)C(C)Sc1ncnc2c1nnn2-c1ccc(F)cc1` (stereo not given), the Potency is reported as inconclusive: 22.4 µM [falling, partial curve]. For `COc1cc(/C=C/C(O)=C/C(=O)/C=C/c2ccc(O)cc2)ccc1O`, the Potency was inconclusive: 23.1 µM [falling, partial curve]. With `CCCCN1Cc2c(nc3cc(-c4ccco4)[nH]n3c2=O)C1=O` the Potency was inconclusive: 22.4 µM [falling, partial curve, poor fit]. With `COC(=O)c1c(C)nc2ccccc2c1C(=O)O` the activity change, negative = inhibition was “inactive”. In the case of `Cc1cc(C)cc(NC(=O)c2nnn(Cc3cc(C)ccc3C)c2N)c1`, the Potency is reported as inconclusive: 3.26 µM [falling, full curve, poor fit]. For `CCCCCCCNC(=O)C1(CC2CC(c3cccc(Br)c3)=NO2)CCN(C(=O)OC(C)(C)C)CC1` (stereo not given), the activity change, negative = inhibition was inconclusive: 15.4%. With `O=C(Nc1ccccc1C(=O)Nc1nnc(C(F)(F)F)s1)c1ccccc1` the activity change, negative = inhibition was inconclusive: 21.2%. With `COc1ccc(Cn2c(CCCO)nc3ccccc32)cc1OC` the Potency was inconclusive: 14.6 µM [falling, partial curve]. With `CC(C)(C)Nc1c(-c2ccc(O)cc2)nc2ccc(Cl)cn12` the Potency was inconclusive: 12.6 µM [falling, partial curve]. With `Cc1csc(NC(=O)c2cc3ccccc3o2)n1` the Potency was inconclusive: 20.6 µM [falling, partial curve]. In the case of `Cc1cccc(NC(=O)C2CCCN(c3ncnc4c3nc3n4CCCCC3)C2)n1` (stereo not given), the activity change, negative = inhibition is reported as “inactive”. With `O=C(Nc1nc(-c2ccccn2)cs1)Nc1ccc(F)cc1F` the Potency was inconclusive: 35.5 µM [falling, single point]. With `Cc1ncc(CN2CCC(N3CCC(C(=O)N4CCCC4)CC3)CC2)s1` the activity change, negative = inhibition was inconclusive: -0.591%. With `CNS(=O)(=O)c1ccc(OC)c(-c2nnc3c4ccccc4c(C)nn23)c1` the Potency was inconclusive: 11.2 µM [falling, partial curve, poor fit]. For `O=C(Nc1cc(Cl)ccn1)C1CCN(S(=O)(=O)c2cccs2)CC1`, the activity change, negative = inhibition was inconclusive: 16.4%. In the case of `COc1ccc(-n2ccc(=O)c3c2CCCC3=O)cc1`, the activity change, negative = inhibition is reported as “inactive”. In the case of `O=C(CCCCCn1c(=S)[nH]c2ccc(N3CCOCC3)cc2c1=O)NCc1ccc2c(c1)OCO2`, the activity change, negative = inhibition is reported as “inactive”. With `COc1ccccc1NC(=O)/C(=N/OCc1ccc(C#N)cc1)C(C)=O` the Potency was inconclusive: 3.98 µM [falling, partial curve, poor fit]. For `CCC(COC(=O)c1ccccc1)Oc1cc(NCc2ccccc2)c2ncn(C(C)C)c2c1` (stereo not given), the activity change, negative = inhibition was inconclusive: -0.354%. With `CC1CC(C)CN(c2ccc(S(=O)(=O)N3CCOCC3)cc2)C1` (stereo not given) the activity change, negative = inhibition was inconclusive: 4.32%. In the case of `COc1cc(/C=C(\C#N)C(=O)Nc2ccc3c(c2)OCCO3)ccc1O`, the Potency is reported as inconclusive: 35.5 µM [falling, single point]. With `O=C(Nc1ccccn1)c1sc2cc([N+](=O)[O-])ccc2c1Cl` the activity change, negative = inhibition was inconclusive: 6.51%. With `CN(CC(=O)Nc1ccccc1C(F)(F)F)C(=O)c1ccc2c(=O)n3c(nc2c1)CCC3` the activity change, negative = inhibition was “inactive”. For `CC(=O)c1ccc(S(=O)(=O)N2CCCC(N(C)CCc3ccccn3)C2)cc1` (stereo not given), the activity change, negative = inhibition was “inactive”. With `CCN1CCN(c2ncc(C(=O)Nc3c(F)cc(F)cc3Br)c3ccccc23)CC1` the Potency was inconclusive: 32.6 µM [falling, partial curve, poor fit]. In the case of `Cc1ccc(/C=C2\SC(=S)N(CCC(=O)N3CCCCC3)C2=O)cc1`, the activity change, negative = inhibition is reported as inconclusive: -16.3%. For `Oc1ccc(COC2CCN(Cc3ccccc3)C2)c2cccnc12` (stereo not given), the Potency was inconclusive: 20.6 µM [falling, single point]. For `COC(=O)c1ccc(NC(=O)COc2ccc(S(=O)(=O)N3CCCCC3)cc2)cc1`, the activity change, negative = inhibition was inconclusive: -5.65%. For `Cc1ccc(S(=O)(=O)c2cn(C)c3cc(N4CCN(C)CC4)c(F)cc3c2=O)cc1`, the activity change, negative = inhibition was inconclusive: 4.31%. For `CCCCn1c(=O)[nH]c(=O)c2c1nc(-c1ccccc1F)n2Cc1ccccc1`, the activity change, negative = inhibition was inconclusive: 8.03%. In the case of `CC(=O)N(Cc1nc2sc(C)c(C)c2c(=O)[nH]1)C1CCCC1`, the activity change, negative = inhibition is reported as “inactive”. In the case of `Cc1ccc(S(=O)(=O)N2CCCC2CNC(=O)c2ccc(F)c(F)c2)cc1` (stereo not given), the activity change, negative = inhibition is reported as inconclusive: -5.33%.
